# Measurements: patent publication US20230321082A1, “USE OF TRIAZOLE ANALOGUES FOR INHIBITION OF A TRIPARTITE VOR PROTEIN COMPLEX IN MULTICELLULAR ORGANISMS” (TECHNISCHE UNIVERSITÄT DRESDEN, priority 2020, published 2023)
# At least one compound was matched to its structure with a doubt left.
# How the values were obtained:
# [1] = tested on: HIV-1 integrase in HeLa cells; assay: Transport of HIV-1 integrase into the nucleoplasmic reticulum (IN-2 immunolabelling); type: cell-based; conditions: 10 μM, 30 minutes pretreatment, HIV-Gag-iGFP infection 1 hour
# Experimental: (A) HeLa cells were pretreated with 10 μM of drugs as indicated for 30 minutes before HIV-Gag-iGFP infection for 1 hour in the presence of drugs. As controls, DMSO was used (DMSO, HIV-infected cells; control, uninfected cells). Cells were fixed and processed for double immunolabelling for VAP-A and HIV IN (IN-2). […] (B) HeLa cells expressing Rab7-RFP were treated as in panel A, and then double immunolabelled for SUN2 and IN-2. Scale bars, 10 (A) and 5 (B) μm.
# Referring to FIG. 19A, B illustrates the quantification of IN-2 immunoreactivity in SUN2^+ NEI (A, 50 NEIs were assessed per experiment, n=3, individual values of each experiment is indicated) and the IN-2 nucleoplasm/cytoplasm ratio per cell (B, n=150 cells from three independent experiments) on HeLa cells treated with drugs as indicated (see FIG. 18B). Means±S.D. with individual values for each experiment (A) are shown. N.s., not significant; ***, p<0.001.
# [2] = tested on: HIV-Gag-iGFP infection of HeLa cells; assay: HIV-1 productive infection (HIV-Gag-iGFP expression); type: cell-based; conditions: 10 μM pretreatment, infection 6 hours, then 24 hours in presence of drugs
# Experimental: Referring to FIG. 20A-C, illustrates the impact of drugs on productive infection. HeLa cells pretreated with drugs as above before HIV-Gag-iGFP infection for 6 hours, washed, and incubated for 24 hours in the presence of drugs. Samples were processed either for immunocytochemistry or flow cytometry analyses. DMSO was used as solvent vehicle. […] Dashed line represents DMSO-treated, noninfected cells as a negative control. […] The percentage of GFP^+ cells as assessed by flow cytometry is plotted (C). Means±S.D. with individual values for each experiment are shown. Cy, cytoplasm; Pm, plasma membrane; n.s., not significant; ***, p<0.001.
compound,measurement,setting,value
"CCC(C)n1ncn(-c2ccc(N3CCN(c4ccc(OCC5COC(Cn6cncn6)(c6ccc(Cl)cc6Cl)O5)cc4)CC3)cc2)c1=O (centres unmarked) [ICZ, itraconazole, reference compound]",transport of HIV-1 integrase into the nucleoplasmic reticulum (IN-2 immunoreactivity in NEI),[1],inhibit the transport of HIV-1 integrase into the nucleoplasmic reticulum
same,Gag-iGFP expression (productive infection),[2],reduction in Gag-iGFP expression
